Measured values: the supplement of paper PMC10338343
± gives the standard deviation. The list shows a part of the results. Many entries were measured with a wide error.

system: EfPiwi piRISC loaded with L1MC piRNA (26 nt); assay: pre-steady-state target cleavage rate (min^-1); guide: L1MC piRNA 5'p-UAACUAAAUACUAUGCAAGCUGUAGG; MIWI and MILI are mouse PIWI proteins and EfPiwi is from a freshwater sponge; tags in brackets are library labels; higher = faster piRNA-guided slicing of the target; conditions: auxiliary factor: 500 nM Ephydatia muelleri Gtsf1
Method: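 Cleave-'n-Seq: a library of target RNAs (target site in constant flanks) at […] was incubated with 1 nM active freshwater sponge Ephydatia fluviatilis Piwi piRISC (synthetic 5'-monophosphorylated piRNA guide) with or without 500 nM EmGtsf1 at 33 °C for 1 min to 16 h. Uncleaved targets were sequenced and the pooled three trials fitted to a burst-and-steady-state model to give the pre-steady-state cleavage rate (min^-1). Sequence is the target site only. Fits with R² ≤ 0 are excluded.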

| Sequence | pre-steady-state target cleavage rate |
| --- | --- |
| UCCUGGUACAGCUUCCAUAGUAUUUUGUUA | 0.000831 ± 0.01 |
| UCCUGGAACAGCUUGCAUAGCUAUUUAGUUA | 0.00066 ± 0.0049 |
| UCCUGGAUGUCGUUGCAUAGUAUUUUCUUA | 0.00037 ± 0.0062 |
| UCCUGGAUGUCGAAGCAUAGUAAUUAGAUA | 0.00126 ± 0.0069 |
| UCCUGGAUGUCGAACCAUAGUAUUUUCAAA [g6:g15:cont:t1A] | 0.00033 ± 0.021 |
| UCCUGCUACACCUUGCAUAGUAUAUAGUUA | 0.00204 ± 0.0026 |
| UCCUGCUACAGCUUGCAUUCUAUUUAGAAA | 0.000506 ± 0.0062 |
| UCCUGGAUGUCGAUGCAUAGUACUUAGUUA | 0.00454 ± 0.0029 |
| UCCUGGAUGUCCUUGCAUAGUAUUUAGUUC [g2:g19:cont:t1C] | 0.00867 ± 0.0028 |
| UCCUCCUACAGCUUGCAUAGUAUUUAUGUUA | 0.00546 ± 0.0027 |
| UCCUGGAACAGGUUGCUUAGUAUUUAGUUA | 0.00924 ± 0.0022 |
| UCCUGCUACUCCUUGCAUAGUAUUUUCAAA | 0.00232 ± 0.0037 |
| UCCUGCUACAGCUUGGAUAGUUUUUAGUUA | 0.0172 ± 0.0039 |
| UCCUGGUACAGCUGUGCAUAGUAUUUAGUUA | 0.00903 ± 0.0034 |
| UCCUGGAUGUGCUUGCAUAGAUUUUAGUUA | 0.000454 ± 0.011 |
| UCCUGGAUGUCCUUGCAUAGAAUUUACUUA | 0.000791 ± 0.0078 |
| UCCUGGAUGAGCUUGCAUAGUAUUGAGUUA | 0.00461 ± 0.0019 |
| UCCUGGAUGUGCUUGCAUAGUUAAUAGAAA | 0.000372 ± 0.011 |
| UCCUGGAUCAGCUUGCAUAGUAAUUACAAA | 0.00172 ± 0.0032 |
| UCCUGGAUGUCGAUGCAUACUAUUUAGAUA | 0.00117 ± 0.006 |
| UCCUGGAUCAGCUUGCAUAUGUAUUUAGUUA | 0.000543 ± 0.01 |
| UCCUCCUACAGCUUGCAUAGAUAUUAGAAA | 0.00201 ± 0.0049 |
| UCCUGGAUGAGCUAGCAUAGUAUUUACUUA | 0.000894 ± 0.004 |
| UCCUGGAUCAGCUUGCAAUGUAUUUUCAAA | 0.000259 ± 0.013 |
| UCCUGGAUGUGCAUGCAUAGUAUUUACUUA | 0.000588 ± 0.0091 |
| UCCUGGAUGUCGAAGCAUAGUAUUUAGCUUA | 0.000216 ± 0.016 |

same assay, conditions: auxiliary factor: none (no Gtsf1)

| Sequence | pre-steady-state target cleavage rate |
| --- | --- |
| UCCUGGAACAGCUUGCAUAGCUAUUUAGUUA | 0.000328 ± 0.022 |
| UCCUGGAUGUCGUUGCAUAGUAUUUUCUUA | 0.000171 ± 0.044 |
| UCCUGGAACAGGUUGCUUAGUAUUUAGUUA | 0.000725 ± 0.013 |
| UCCUGCUACAGCUUGGAUAGUUUUUAGUUA | 0.00264 ± 0.005 |
| UCCUGGUACAGCUGUGCAUAGUAUUUAGUUA | 0.000187 ± 0.041 |
| UCCUGGAUGUGCUUGCAUAGAUUUUAGUUA | 0.000128 ± 0.04 |
| UCCUGCUACAGCUUGCAUAGUAUUUACAAA | 0.000102 ± 0.061 |
| UCCUGGAUGAGCUUGCAUAGUAUUGAGUUA | 0.000699 ± 0.014 |
| UCCUGGAUGUGCUUGCAUAGUUAAUAGAAA | 0.000427 ± 0.015 |
| UCCUGGAUGUCGAUGCAUACUAUUUAGAUA | 0.000286 ± 0.022 |
| UCCUGGAUCAGCUUGCAUAUGUAUUUAGUUA | 0.000201 ± 0.042 |
| UCCUCCUACAGCUUGCAUAGAUAUUAGAAA | 0.000226 ± 0.021 |
| UCCUGGAUGAGCUAGCAUAGUAUUUACUUA | 0.000861 ± 0.012 |
| UCCUGGAUGUGCAUGCAUAGUAUUUACUUA | < 0.0001 |
| UCCUGGAUGUCGAAGCAUAGUAUUUAGCUUA | 0.00018 ± 0.036 |
